Experimental findings from paper PMC10817852, “Vascular injury activates the ELK1/SND1/SRF pathway to promote vascular smooth muscle cell proliferative phenotype and neointimal hyperplasia” are described below.

Chains of the proteins cited; added tags and fusions are not shown.
UniProt Q9JHD1: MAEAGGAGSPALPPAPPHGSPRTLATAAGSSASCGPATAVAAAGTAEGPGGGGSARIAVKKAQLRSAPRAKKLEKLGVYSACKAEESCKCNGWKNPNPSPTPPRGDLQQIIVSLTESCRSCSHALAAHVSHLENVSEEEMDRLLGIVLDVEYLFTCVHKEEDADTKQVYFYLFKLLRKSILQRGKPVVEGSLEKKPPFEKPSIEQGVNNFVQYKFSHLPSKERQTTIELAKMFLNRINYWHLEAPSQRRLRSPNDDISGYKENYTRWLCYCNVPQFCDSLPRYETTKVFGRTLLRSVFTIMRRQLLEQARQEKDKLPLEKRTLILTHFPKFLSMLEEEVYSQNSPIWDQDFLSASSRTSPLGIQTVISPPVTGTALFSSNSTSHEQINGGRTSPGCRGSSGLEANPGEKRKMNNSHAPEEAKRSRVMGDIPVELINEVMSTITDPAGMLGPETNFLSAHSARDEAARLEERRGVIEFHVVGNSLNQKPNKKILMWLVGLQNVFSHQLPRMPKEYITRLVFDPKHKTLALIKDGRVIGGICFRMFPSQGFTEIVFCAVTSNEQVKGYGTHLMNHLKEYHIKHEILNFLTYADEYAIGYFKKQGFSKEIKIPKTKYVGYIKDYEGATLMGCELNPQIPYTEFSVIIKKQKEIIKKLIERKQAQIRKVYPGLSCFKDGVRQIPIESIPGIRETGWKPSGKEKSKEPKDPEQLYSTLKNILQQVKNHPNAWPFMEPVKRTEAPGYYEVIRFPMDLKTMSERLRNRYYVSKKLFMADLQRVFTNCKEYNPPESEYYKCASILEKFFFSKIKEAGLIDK
UniProt Q8VIM5: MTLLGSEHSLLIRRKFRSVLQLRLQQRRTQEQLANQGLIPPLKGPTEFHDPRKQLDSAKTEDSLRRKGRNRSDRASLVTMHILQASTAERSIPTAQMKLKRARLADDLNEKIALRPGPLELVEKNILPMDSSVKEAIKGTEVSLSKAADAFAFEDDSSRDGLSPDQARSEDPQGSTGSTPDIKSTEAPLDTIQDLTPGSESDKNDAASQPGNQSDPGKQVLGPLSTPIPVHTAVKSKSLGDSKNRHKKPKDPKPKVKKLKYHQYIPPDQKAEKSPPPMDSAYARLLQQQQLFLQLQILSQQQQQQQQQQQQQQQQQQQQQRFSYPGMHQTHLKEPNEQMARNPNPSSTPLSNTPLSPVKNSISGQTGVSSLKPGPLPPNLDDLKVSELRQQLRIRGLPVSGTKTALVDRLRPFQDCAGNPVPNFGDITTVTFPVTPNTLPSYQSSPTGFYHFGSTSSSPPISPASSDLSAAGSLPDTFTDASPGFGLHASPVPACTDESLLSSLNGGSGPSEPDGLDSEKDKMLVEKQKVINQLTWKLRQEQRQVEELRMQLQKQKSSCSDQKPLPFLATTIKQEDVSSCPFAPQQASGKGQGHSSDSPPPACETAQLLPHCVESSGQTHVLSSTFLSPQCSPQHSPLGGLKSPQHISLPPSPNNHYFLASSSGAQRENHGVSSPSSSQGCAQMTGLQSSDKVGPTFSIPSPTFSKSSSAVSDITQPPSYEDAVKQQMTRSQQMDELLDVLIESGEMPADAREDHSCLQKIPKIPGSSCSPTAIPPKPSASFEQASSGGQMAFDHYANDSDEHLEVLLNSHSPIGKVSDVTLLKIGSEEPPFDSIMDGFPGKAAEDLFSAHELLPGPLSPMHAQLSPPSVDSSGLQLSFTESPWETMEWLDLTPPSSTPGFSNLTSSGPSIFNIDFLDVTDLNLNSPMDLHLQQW

No constants are given. Whether binding was seen depends on the method and setting. For some of these results: In cells and extracts the contact can be indirect. Some binding calls cover weakened binding; strength is not graded here. For some of these results: Tags and fused reporters may be left off the sequences shown.

Test [1] has as its target T1, GST-fusion protein containing the SRF-1 domain (containing the MADS-box) of SRF (UniProt Q9JM73).
T1 sequence: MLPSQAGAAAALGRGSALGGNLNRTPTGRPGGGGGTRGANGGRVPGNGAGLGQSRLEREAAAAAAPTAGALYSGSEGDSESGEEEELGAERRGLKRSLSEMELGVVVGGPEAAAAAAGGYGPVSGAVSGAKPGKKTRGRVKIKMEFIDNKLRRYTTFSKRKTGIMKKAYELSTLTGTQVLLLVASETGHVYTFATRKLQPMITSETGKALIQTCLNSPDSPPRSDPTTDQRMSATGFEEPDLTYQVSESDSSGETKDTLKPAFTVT
The experiment in a line: pull-down; GST pull-down of MYOCD with the MADS domain of SRF (Supplementary Fig. S6A).

The target of test [2] is T2, Serum response factor (SRF), endogenous (mouse (endogenous in primary VSMCs)) (UniProt Q9JM73).
T2 sequence: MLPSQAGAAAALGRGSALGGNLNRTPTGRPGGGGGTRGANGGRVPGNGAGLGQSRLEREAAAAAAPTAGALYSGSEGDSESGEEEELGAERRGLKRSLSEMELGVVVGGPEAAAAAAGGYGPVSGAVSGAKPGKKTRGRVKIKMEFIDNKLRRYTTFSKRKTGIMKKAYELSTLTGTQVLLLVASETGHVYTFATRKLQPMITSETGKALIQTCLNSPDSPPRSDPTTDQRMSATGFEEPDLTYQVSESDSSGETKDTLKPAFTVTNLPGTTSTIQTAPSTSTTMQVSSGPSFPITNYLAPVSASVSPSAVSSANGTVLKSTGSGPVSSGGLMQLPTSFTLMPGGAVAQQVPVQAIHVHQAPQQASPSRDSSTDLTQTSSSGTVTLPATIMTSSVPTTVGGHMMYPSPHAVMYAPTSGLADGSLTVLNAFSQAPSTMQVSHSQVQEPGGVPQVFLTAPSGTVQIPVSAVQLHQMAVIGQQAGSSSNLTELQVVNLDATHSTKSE
As to the kind of experiment: co-IP; indicated antibody or IgG on protein A/G agarose, 2 mg total cell lysate (50 mM Tris-HCl pH 8.0, 150 mM NaCl, 0.2% Nonidet P-40, 2 mM EDTA), 4 °C, 12 h; primary mouse VSMCs (with or without PDGF 40 ng/mL 24 h, Snd1 knockout, FLAG-SND1 overexpression) and mouse femoral arteries after wire injury.

In test [3] the target is T3, Staphylococcal nuclease domain-containing protein 1 (SND1), endogenous (mouse (endogenous in primary VSMCs)) (UniProt Q78PY7).
T3 sequence: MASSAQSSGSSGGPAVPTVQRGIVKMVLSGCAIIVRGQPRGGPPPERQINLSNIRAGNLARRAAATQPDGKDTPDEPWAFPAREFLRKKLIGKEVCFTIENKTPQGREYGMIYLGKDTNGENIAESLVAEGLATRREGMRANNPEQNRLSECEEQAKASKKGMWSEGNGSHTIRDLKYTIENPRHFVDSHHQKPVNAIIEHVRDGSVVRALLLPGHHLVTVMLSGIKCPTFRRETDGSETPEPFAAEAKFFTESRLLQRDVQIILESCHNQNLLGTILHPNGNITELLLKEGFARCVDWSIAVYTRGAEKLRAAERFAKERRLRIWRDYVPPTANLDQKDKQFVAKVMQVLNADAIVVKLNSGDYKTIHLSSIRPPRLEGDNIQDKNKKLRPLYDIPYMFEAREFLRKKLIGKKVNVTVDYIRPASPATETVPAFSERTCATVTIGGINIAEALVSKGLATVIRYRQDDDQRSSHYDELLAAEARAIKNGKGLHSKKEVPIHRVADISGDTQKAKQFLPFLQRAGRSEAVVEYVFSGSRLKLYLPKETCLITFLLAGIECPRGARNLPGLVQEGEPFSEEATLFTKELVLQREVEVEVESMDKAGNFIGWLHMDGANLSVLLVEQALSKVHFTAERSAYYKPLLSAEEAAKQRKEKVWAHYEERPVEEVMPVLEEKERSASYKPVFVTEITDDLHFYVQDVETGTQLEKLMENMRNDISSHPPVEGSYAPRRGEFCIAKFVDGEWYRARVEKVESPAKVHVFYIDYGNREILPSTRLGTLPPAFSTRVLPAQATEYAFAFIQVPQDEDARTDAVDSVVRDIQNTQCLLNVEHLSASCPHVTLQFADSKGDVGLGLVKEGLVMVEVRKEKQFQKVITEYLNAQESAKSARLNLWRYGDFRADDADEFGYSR
Described as above.

Test [4] deals with T4, GST-fusion protein containing full-length SND1 (GST-SND1) (UniProt Q78PY7).
T4 sequence: T3 sequence
As to the kind of experiment: pull-down; GST-fusion proteins of SND1 (full length, SN, TSN) with in vitro translated SRF; only the target purified.

Test [5] has as its target Lysine acetyltransferase 2B (KAT2B), endogenous (mouse (endogenous in primary VSMCs)) (UniProt Q9JHD1). As to the kind of experiment: co-IP; indicated antibody or IgG on protein A/G agarose, 2 mg total cell lysate (50 mM Tris-HCl pH 8.0, 150 mM NaCl, 0.2% Nonidet P-40, 2 mM EDTA), 4 °C, 12 h; primary mouse VSMCs (with or without PDGF 40 ng/mL 24 h, Snd1 knockout, FLAG-SND1 overexpression) and mouse femoral arteries after wire injury.

Test [6] deals with T5, GST-fusion protein containing full-length SRF (GST-SRF) (UniProt Q9JM73).
T5 sequence: T2 sequence
As to the kind of experiment: pull-down; GST-fusion proteins of SRF (full length, SRF-1, SRF-2) with His-SND1; both purified.

In test [7] the target is T1, GST-fusion protein containing the SRF-1 domain (containing the MADS-box) of SRF. The description is as above.
In test [8] the target is T6, Purified SRF (1-266 aa) used in the EMSA (UniProt Q9JM73).
T6 sequence: T1 sequence
As to the kind of experiment: native gel or EMSA; 0.1 μg purified SRF (1-266 aa) and SND1 (1-660 aa) with 20 fmol biotin-labeled CArG probe (Fos gene and other genes), room temperature, 6% polyacrylamide gel in 0.5x TBE; complex of both proteins on the DNA; both purified.

Turning to “Myocardin (MYOCD) used in the GST pull-down (from UniProt Q8VIM5 1-935)”, in test [1], the binding entry was “binds”.

As for “Myocardin (MYOCD) in the Co-IP with SRF (from UniProt Q8VIM5 1-935)”, the binding entry in test [2] was “binds”.

B1: Serum response factor (SRF), endogenous (protein, UniProt Q9JM73 1-504)
chain: T2 sequence
Regarding B1, the binding entry in test [3] is on record as “binds”.

B2: In vitro translated SRF (protein, UniProt Q9JM73 1-504)
chain: T2 sequence
As to B2, in test [4], the binding entry was “binds”.

B3: FLAG-SND1 (pLVX-IRES-FLAG-SND1 lentivirus) (protein, UniProt Q78PY7 1-910)
chain: T3 sequence
As for B3, the binding entry in test [2] was “binds”.

B4: Staphylococcal nuclease domain-containing protein 1 (SND1), endogenous (protein, UniProt Q78PY7 1-910)
chain: T3 sequence
With B4, the binding result in test [2] and in test [5] was “binds” each time.

B5: His-SND1 (protein, UniProt Q78PY7 1-910)
chain: T3 sequence
As to B5, the binding entry in test [6] and in test [7] was “binds” each time.

B6: Purified SND1 (1-660 aa) used in the EMSA (domain or fragment, UniProt Q78PY7 1-660)
chain: MASSAQSSGSSGGPAVPTVQRGIVKMVLSGCAIIVRGQPRGGPPPERQINLSNIRAGNLARRAAATQPDGKDTPDEPWAFPAREFLRKKLIGKEVCFTIENKTPQGREYGMIYLGKDTNGENIAESLVAEGLATRREGMRANNPEQNRLSECEEQAKASKKGMWSEGNGSHTIRDLKYTIENPRHFVDSHHQKPVNAIIEHVRDGSVVRALLLPGHHLVTVMLSGIKCPTFRRETDGSETPEPFAAEAKFFTESRLLQRDVQIILESCHNQNLLGTILHPNGNITELLLKEGFARCVDWSIAVYTRGAEKLRAAERFAKERRLRIWRDYVPPTANLDQKDKQFVAKVMQVLNADAIVVKLNSGDYKTIHLSSIRPPRLEGDNIQDKNKKLRPLYDIPYMFEAREFLRKKLIGKKVNVTVDYIRPASPATETVPAFSERTCATVTIGGINIAEALVSKGLATVIRYRQDDDQRSSHYDELLAAEARAIKNGKGLHSKKEVPIHRVADISGDTQKAKQFLPFLQRAGRSEAVVEYVFSGSRLKLYLPKETCLITFLLAGIECPRGARNLPGLVQEGEPFSEEATLFTKELVLQREVEVEVESMDKAGNFIGWLHMDGANLSVLLVEQALSKVHFTAERSAYYKPLLSAEEAAKQRKEKVWAH
In the case of B6, in test [8], the binding entry was “binds”.
